# Reference: US20030199424A1, “Method of treatment and/or prophylaxis” (priority 2002, published 2003)
# Several values for one entry are separate records, joined by “and”; a condition that tells them apart may be missing. Equal values may be shown once.
# Legend:
# STZ-diabetic rats = assay: Opioid-mediated antinociception (Von Frey, % MPE) in STZ-diabetic rats
# non-diabetic rats = assay: Opioid-mediated antinociception (Von Frey, % MPE) in non-diabetic control rats; format: in vivo, rat; details: morphine 2.4 mg/kg s.c.
# Method: A second group of STZ-diabetic rats received vehicle (DMSO:water 10:90) by oral gavage (protocol-control rats). In the third group, weight-matched, naive, non-diabetic control rats (non-diabetic candesartan control rats) were also treated with candesartan for one wk prior to opioid antinociceptive testing to determine any intrinsic effects of candesartan on baseline pain scores and on opioid-mediated antinociception.
# The statistical significance criterion was p<0.05.
# [1] = morphine 2.4 mg/kg s.c., candesartan (0.5 mg/kg/day) treated STZ-diabetic rats, 9 wks post-STZ
# [2] = morphine 6.1 mg/kg s.c., control STZ-diabetic rats, 3 wks post-STZ
# [3] = morphine 6.1 mg/kg s.c., control STZ-diabetic rats, 9 wks post-STZ
# [4] = morphine 14 mg/kg s.c., candesartan (0.5 mg/kg/day) treated STZ-diabetic rats, 12 wks post-STZ
# [5] = morphine 14 mg/kg s.c., control STZ-diabetic rats, 12 wks post-STZ
# [6] = morphine 18 mg/kg s.c., candesartan (0.5 mg/kg/day) treated STZ-diabetic rats, 21 wks post-STZ
# [7] = morphine 18 mg/kg s.c., candesartan (0.5 mg/kg/day) treated STZ-diabetic rats, 24 wks post-STZ
# [8] = morphine 18 mg/kg s.c., control STZ-diabetic rats, 24 wks post-STZ
structure (smiles),measurement,setting,value
CN1CC[C@]23c4c5ccc(O)c4O[C@H]2[C@@H](O)C=C[C@H]3[C@H]1C5 [morphine],Mean (±SEM) % MPE AUC,"STZ-diabetic rats; morphine 2.4 mg/kg s.c., STZ-diabetic rats, 4 wks candesartan (2.0 mg/kg/day) re-initiation",120 (±12.9) % MPE.h
same,Mean (±SEM) % MPE AUC,"STZ-diabetic rats; morphine 2.4 mg/kg s.c., STZ-diabetic rats, 6 wks after cessation of candesartan 2.0 mg/kg/day (stopped at 24 wks post-STZ)",112±14.2 % MPE.h and 112 (±14.1) % MPE.h
same,Mean (±SEM) % MPE AUC,"STZ-diabetic rats; morphine 2.4 mg/kg s.c., STZ-diabetic rats, 6 wks candesartan (2.0 mg/kg/day) re-initiation",130±7.5 % MPE.h and 131 (±7.6) % MPE.h
same,Mean (±SEM) dose normalised % MPE AUC,"STZ-diabetic rats; morphine 2.4 mg/kg s.c., candesartan (0.5 mg/kg/day) treated STZ-diabetic rats, 3 wks post-STZ",81.4 (±2.9) % MPE AUC.h.kg.mg^−1
same,Mean (±SEM) % MPE AUC,STZ-diabetic rats; [1],99 (±12.9) % MPE.h
same,Mean (±SEM) dose normalised % MPE AUC,STZ-diabetic rats; [1],41.1 (±5.4) % MPE AUC.h.kg.mg^−1
same,Mean (±SEM) % MPE AUC,"STZ-diabetic rats; morphine 2.4 mg/kg s.c., candesartan (2.0 mg/kg/day) treated STZ-diabetic rats, 3 wks post-STZ",126 (±13.2) % MPE.h
same,Mean (±SEM) % MPE AUC,"STZ-diabetic rats; morphine 2.4 mg/kg s.c., candesartan (2.0 mg/kg/day) treated STZ-diabetic rats, 9 wks post-STZ",138 (±10.9) % MPE.h
same,Mean (±SEM) % MPE AUC,"STZ-diabetic rats; morphine 2.4 mg/kg s.c., candesartan (2.0 mg/kg/day) treated STZ-diabetic rats, 12 wks post-STZ",158 (±10.2) % MPE.h
same,Mean (±SEM) % MPE AUC,"STZ-diabetic rats; morphine 2.4 mg/kg s.c., candesartan (2.0 mg/kg/day) treated STZ-diabetic rats, 24 wks post-STZ",135±9.8 % MPE.h and 135 (±9.8) % MPE.h and 135 (±9.2) % MPE.h
same,Mean (±SEM) % MPE AUC,"STZ-diabetic rats; morphine 2.4 mg/kg s.c., low-dose candesartan (0.5 mg/kg/day) treated STZ-diabetic rats, 3 wks post-STZ",195 (±6.9) % MPE.h
same,Mean (±SEM) % MPE AUC,STZ-diabetic rats; [2],171 (±5.9) % MPE.h
same,Mean (±SEM) dose normalised % MPE AUC,STZ-diabetic rats; [2],28.0 (±1.0) % MPE AUC.h.kg.mg^−1
same,Mean (±SEM) % MPE AUC,STZ-diabetic rats; [3],182 (±9.1) % MPE.h
same,Mean (±SEM) dose normalised % MPE AUC,STZ-diabetic rats; [3],29.8 (±1.5) % MPE AUC.h.kg.mg^−1
same,Mean (±SEM) % MPE AUC,STZ-diabetic rats; [4],166 (±6.7) % MPE.h
same,Mean (±SEM) dose normalised % MPE AUC,STZ-diabetic rats; [4],17.1 (±0.5) % MPE AUC.h.kg.mg^−1
same,Mean (±SEM) % MPE AUC,STZ-diabetic rats; [5],34 (±11.4) % MPE.h
same,Mean (±SEM) dose normalised % MPE AUC,STZ-diabetic rats; [5],2.5 (±0.8) % MPE AUC.h.kg.mg^−1
same,Mean (±SEM) % MPE AUC,STZ-diabetic rats; [6],71 (±11.2) % MPE.h
same,Mean (±SEM) dose normalised % MPE AUC,STZ-diabetic rats; [6],3.9(±0.6) % MPE AUC.h.kg.mg^−1
same,Mean (±SEM) % MPE AUC,STZ-diabetic rats; [7],92 (±5.0) % MPE.h
same,Mean (±SEM) dose normalised % MPE AUC,STZ-diabetic rats; [7],5.1 (±0.3) % MPE AUC.h.kg.mg^−1
same,Mean (±SEM) % MPE AUC,STZ-diabetic rats; [8],26 (±4.5) % MPE.h
same,Mean (±SEM) dose normalised % MPE AUC,STZ-diabetic rats; [8],1.4 (±0.2) % MPE AUC.h.kg.mg^−1
same,Mean (±SEM) % MPE AUC,non-diabetic rats; candesartan (2.0 mg/kg/day) treated non-diabetic rats,140 (±8.3) % MPE.h
same,Mean (±SEM) % MPE AUC,"non-diabetic rats; protocol control (weight-matched non-diabetic rats, once daily oral vehicle)",149±18.8 % MPE.h and 149 (±18.8) % MPE.h and 149 (±7.7) % MPE.h
same,Mean (±SEM) dose normalised % MPE AUC,non-diabetic rats; protocol control non-diabetic rats,62.0 (±3.2) % MPE AUC.h.kg.mg^−1
